According to US20260097129A1, “ANTIBODY-DRUG CONJUGATE COMPRISING DRUG AND ANTIBODY SPECIFICALLY BINDING TO GRP94 OR ANTIGEN-BINDING FRAGMENT THEREOF” (KOOKMIN UNIVERSITY INDUSTRY ACADEMY COOPERATION FOUNDATION, priority 2022, published 2026):
Results are given in words; binding and its absence hold for the method and conditions named. Some entries that bind do so weakly or less than the wild type.

Chains of the proteins cited; added tags and fusions are not shown. Residues count along the entry.
UniProt P14625, residues 22-803: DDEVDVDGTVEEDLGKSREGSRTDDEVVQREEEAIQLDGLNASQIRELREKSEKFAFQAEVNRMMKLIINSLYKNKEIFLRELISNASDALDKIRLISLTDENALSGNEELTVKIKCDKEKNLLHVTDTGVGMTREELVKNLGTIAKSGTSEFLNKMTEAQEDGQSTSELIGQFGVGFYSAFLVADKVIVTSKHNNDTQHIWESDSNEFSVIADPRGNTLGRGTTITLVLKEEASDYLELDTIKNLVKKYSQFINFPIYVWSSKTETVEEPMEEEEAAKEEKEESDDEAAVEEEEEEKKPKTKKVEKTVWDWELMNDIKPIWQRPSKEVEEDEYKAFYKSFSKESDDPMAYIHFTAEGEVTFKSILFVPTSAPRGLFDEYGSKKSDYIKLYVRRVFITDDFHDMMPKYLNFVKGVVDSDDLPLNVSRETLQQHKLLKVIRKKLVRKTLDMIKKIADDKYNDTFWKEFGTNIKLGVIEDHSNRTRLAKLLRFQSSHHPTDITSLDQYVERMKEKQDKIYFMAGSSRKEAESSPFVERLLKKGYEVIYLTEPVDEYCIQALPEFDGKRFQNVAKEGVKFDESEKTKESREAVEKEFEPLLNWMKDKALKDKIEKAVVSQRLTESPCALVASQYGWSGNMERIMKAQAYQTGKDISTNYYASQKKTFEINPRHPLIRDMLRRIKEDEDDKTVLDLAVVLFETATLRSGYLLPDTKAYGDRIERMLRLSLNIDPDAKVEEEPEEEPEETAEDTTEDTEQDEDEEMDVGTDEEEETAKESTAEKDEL
UniProt P08113, residues 22-802: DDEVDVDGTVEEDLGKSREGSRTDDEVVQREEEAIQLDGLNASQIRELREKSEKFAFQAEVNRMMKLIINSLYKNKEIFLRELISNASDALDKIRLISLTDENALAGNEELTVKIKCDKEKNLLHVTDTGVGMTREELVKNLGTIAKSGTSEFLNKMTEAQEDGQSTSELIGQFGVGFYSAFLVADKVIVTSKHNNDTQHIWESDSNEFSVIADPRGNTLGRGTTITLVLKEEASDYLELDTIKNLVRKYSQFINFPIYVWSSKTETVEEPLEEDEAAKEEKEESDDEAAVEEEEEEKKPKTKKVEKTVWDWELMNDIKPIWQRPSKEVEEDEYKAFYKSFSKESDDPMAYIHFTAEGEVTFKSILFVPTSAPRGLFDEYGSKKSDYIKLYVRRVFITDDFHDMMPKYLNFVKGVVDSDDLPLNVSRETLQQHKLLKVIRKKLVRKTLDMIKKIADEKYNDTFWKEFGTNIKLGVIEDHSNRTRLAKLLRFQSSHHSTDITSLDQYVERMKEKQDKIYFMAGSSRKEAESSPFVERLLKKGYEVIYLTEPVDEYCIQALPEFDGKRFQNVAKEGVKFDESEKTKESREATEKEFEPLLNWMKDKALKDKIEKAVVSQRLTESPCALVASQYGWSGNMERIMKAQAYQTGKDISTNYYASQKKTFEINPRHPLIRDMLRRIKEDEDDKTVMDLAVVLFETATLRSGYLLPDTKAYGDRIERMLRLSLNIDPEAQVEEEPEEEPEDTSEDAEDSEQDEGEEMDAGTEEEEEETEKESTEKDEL

What was measured:
[1] = target: recombinant human GRP94 (human) (UniProt P14625); assay: ELISA, immobilized rhGRP94
[2] = target: recombinant mouse GRP94 (mouse) (UniProt P08113); assay: ELISA, immobilized rmGRP94

binding [1]: binds
binding [2]: binds
B1: K101.1 (antibody, IgG1, V domains shown)
VH: EVQLLESGGGLVQPGGSLRLSCAASGFTFSNYSMSWVRQAPGKGLEWVSGIYYGSGNKYYADSVKGRFTISRDNSKNTLYLQMNSLRAEDTAVYYCAKNLASFDYWGQGTLVTVSS
VL: QSVLTQPPSASGTPGQRVTISCSGSSSNIGSNSVNWYQQLPGTAPKLLIYSNSHRPSGVPDRFSGSKSGTSASLAISGLRSEDEADYYCGTWDSSLSGYVFGGGTKLTVL
